Assay results from patent US20240209064A1.
No constants are given. Whether binding was seen depends on the method and setting. Some binding calls cover weakened binding; strength is not graded here.

Amino acid sequences for entries named in this document (tags omitted). Residues count along the entry.
UniProt P35968, residues 20-764: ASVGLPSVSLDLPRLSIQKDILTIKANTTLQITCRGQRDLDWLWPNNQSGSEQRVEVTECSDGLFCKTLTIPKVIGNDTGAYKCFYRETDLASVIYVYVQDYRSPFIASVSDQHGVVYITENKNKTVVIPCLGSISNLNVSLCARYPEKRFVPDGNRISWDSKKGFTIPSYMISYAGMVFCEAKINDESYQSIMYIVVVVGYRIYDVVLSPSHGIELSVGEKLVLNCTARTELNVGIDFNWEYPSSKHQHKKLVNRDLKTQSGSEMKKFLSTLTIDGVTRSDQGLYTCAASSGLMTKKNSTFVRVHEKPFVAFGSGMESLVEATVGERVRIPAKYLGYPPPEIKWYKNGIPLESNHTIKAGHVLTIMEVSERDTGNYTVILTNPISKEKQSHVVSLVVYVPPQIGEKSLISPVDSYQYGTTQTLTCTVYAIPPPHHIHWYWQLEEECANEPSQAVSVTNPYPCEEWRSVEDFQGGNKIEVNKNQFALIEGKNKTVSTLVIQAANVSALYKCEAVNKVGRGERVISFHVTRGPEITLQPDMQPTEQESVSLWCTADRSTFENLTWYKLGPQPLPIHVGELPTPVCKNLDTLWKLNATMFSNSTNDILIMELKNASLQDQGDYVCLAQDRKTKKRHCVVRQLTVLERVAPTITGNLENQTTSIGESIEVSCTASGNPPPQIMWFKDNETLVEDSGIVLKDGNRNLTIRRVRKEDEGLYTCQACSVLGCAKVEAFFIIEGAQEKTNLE

Target: vascular endothelial growth factor receptor 2 (UniProt P35968)
Test: ELISA

- binding: binds
B1: protein C7-SL1 (designed binder, not shown: small tags and cut ends)
chain: VSDVPRDCEVVAATPTSLLISWRHPHFPTRYYRITYGETGGNSPVQEFTVPLQPPTATISGLKPGVDYTITVYAVTDGRNGRLLSIPICINYRT
modifications: disulfide bond between the two introduced cysteines
